Assay results reported in PubChem BioAssay AID720504 (National Center for Advancing Translational Sciences (NCATS), 2013).
Among all 360,000 compounds or so, about 10,000 (2.8%) were called active. Inconclusive means that the source gave no clear call. Such entries were picked first, then a sample of the others. Calls come from the whole dose curve; as a rule, active = well fitted inhibition curve with a large enough effect; inconclusive = small, poorly fitted or top-dose-only effect; inactive = flat fitted curve, though single readings scatter. A potency beside an inconclusive call is a rough fit, not a confirmed value.

Amino acid sequences for entries named in this document (tags omitted).
UniProt P53350, whole entry, looked up: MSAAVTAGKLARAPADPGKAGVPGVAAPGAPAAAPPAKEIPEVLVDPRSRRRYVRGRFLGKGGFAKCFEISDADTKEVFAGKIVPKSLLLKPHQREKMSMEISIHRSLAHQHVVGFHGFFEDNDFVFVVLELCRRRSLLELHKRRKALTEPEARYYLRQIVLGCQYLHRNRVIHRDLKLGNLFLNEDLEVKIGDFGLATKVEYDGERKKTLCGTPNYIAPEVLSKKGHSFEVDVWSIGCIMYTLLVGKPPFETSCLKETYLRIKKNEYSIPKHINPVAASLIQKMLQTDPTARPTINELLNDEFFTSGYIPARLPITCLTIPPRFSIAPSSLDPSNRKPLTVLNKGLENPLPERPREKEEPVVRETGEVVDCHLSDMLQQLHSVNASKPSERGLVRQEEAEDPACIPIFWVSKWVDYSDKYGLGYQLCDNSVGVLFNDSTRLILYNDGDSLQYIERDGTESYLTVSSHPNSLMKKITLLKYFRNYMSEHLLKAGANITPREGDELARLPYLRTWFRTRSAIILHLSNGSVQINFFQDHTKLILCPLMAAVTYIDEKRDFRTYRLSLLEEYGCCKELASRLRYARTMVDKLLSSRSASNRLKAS

Molecular target: Serine/threonine-protein kinase PLK1 (Homo sapiens) (UniProt P53350)
Test: qHTS for Inhibitors of PLK1-PDB (polo-like kinase 1 - polo-box domain): Primary Screen; note: nearly all actives have a fitted effect of over 65% in size; for max response, negative = inhibition: series mostly up to about 57 µM
Settings: Plk1 PBD binding of FITC phosphopeptide, fluorescence polarization
% is set by controls: 0 for no effect and ±100 for the full control effect; potency is the fitted concentration of half-maximal effect.

SMILES	Potency	max response, negative = inhibition
O=C(CNC(=O)c1ccccc1)OCC(=O)N1N=C(c2ccc(Cl)cc2)CC1c1ccco1 (stereo unspecified)	inconclusive: 15 µM [inhibitor, partial curve]	
COc1ccc(NC(=O)c2cccc(-c3ccc(O)cc3)c2)cn1	inconclusive: 26.7 µM [inhibitor, partial curve]	
C(=N\N1CCN(c2ccccn2)CC1)/c1cccc2ccccc12		inactive: 3.14%
CCOc1ccc(NC(=O)CN(C)C(=O)Cn2cnc3c2c(=O)n(C)c(=O)n3C)cc1OCC		inactive: -5.83%
COCCCn1c(Cc2csc(Nc3cccc(Cl)c3)n2)nnc1SCC(=O)OC1CCCCC1	inconclusive: 21.2 µM [inhibitor, single point]	
O=C(c1ccc(N2C(=O)C3C4CC(C(Br)C4Br)C3C2=O)cc1)N1CCCCC1 (stereo unspecified)		inactive: -9.25%
O=C(NCc1ccccn1)c1cc(-c2ccc(-c3ccccc3)cc2)nc2ccccc12	inconclusive: 21.2 µM [inhibitor, partial curve]	
CCCCCNC(=O)C(C)NS(=O)(=O)c1ccc(OC)cc1 (stereo unspecified)		inconclusive: -33.4% [inhibitor]
Brc1ccc(-c2nn3c(-c4ccco4)nnc3s2)o1		inconclusive: -31.1% [inhibitor]
Cc1ccc(S(=O)(=O)N2C[C@]3(O)C[C@@H]4C(=O)N(c5ccccc5)C(=O)[C@@H]4C[C@]3(OC(=O)NC3CCCC3)C2)cc1	inconclusive: 29.9 µM [inhibitor, partial curve]	
COC(=O)c1cc(C(=O)c2cc(F)ccc2O)cn2c(=O)c3c(C)c(C)sc3nc12	inconclusive: 29.9 µM [inhibitor, partial curve]	
CCOC(=O)C(NCCCO)c1ccccc1 (stereo unspecified)		inactive: -7.95%
Cn1c(CN2CCCCC2)c(C#N)c2ccccc21		inactive: -14.5%
COc1cccc(N/C(SCc2cccc([N+](=O)[O-])c2)=C(/C#N)C(N)=O)c1	inconclusive: 26.7 µM [inhibitor, partial curve]	
NC(N)=NS(=O)(=O)c1ccc(NC(=S)NC(=O)c2ccc3c(c2)OCO3)cc1	active: 23.8 µM	
CCc1ccc(N2CC(C(=O)Nc3nc4ccc(S(C)(=O)=O)cc4s3)CC2=O)cc1 (stereo unspecified)	inconclusive: 37.7 µM [inhibitor, single point]	
COC(=O)c1cccc(NC(=O)CSc2nc(O)c(-c3ccccc3)c(=O)[nH]2)c1		inactive: -9.56%
C#CCOCCOCCOCCNc1nc(N2CCN(C(=O)C(CCC(=O)O)n3cc(C(N)CC(C)C)nn3)CC2)nc(N2CCN(C(=O)C(Cc3cc4ccccc4[nH]3)n3cc(C(N)Cc4ccc(O)cc4)nn3)CC2)n1 (stereo unspecified)		inactive: -5.74%
O=C(CCS(=O)(=O)c1ccc(Br)cc1)NCCc1ccccc1	active: 29.9 µM	
O=C(Nc1cc(S(=O)(=O)N2CCOCC2)ccc1N1CCOCC1)c1cccc(S(=O)(=O)N2CCCCC2)c1	inconclusive: 23.8 µM [inhibitor, partial curve]	
Cc1cc(N)ccc1N1CCCC1	inconclusive: 21.2 µM [inhibitor, single point]	

3 compounds already listed, arranged by length of the SMILES, descending.
SMILES	Potency	max response, negative = inhibition
COC(=O)c1cc(C(=O)c2cc(F)ccc2O)cn2c(=O)c3c(C)c(C)sc3nc12	inconclusive: 29.9 µM [inhibitor, partial curve]	
COC(=O)c1cccc(NC(=O)CSc2nc(O)c(-c3ccccc3)c(=O)[nH]2)c1		inactive: -9.56%
COc1ccc(NC(=O)c2cccc(-c3ccc(O)cc3)c2)cn1	inconclusive: 26.7 µM [inhibitor, partial curve]	

The results go on:

SMILES	Potency	max response, negative = inhibition
O=C(O)c1ccc(-n2cc(-c3cc4ccccc4oc3=O)[nH]c2=S)cc1	inconclusive: 26.7 µM [inhibitor, single point]	
COCCCN(C(=S)NC(=O)C(C)(C)C)c1c(N)n(Cc2ccccc2)c(=O)[nH]c1=O	inconclusive: 26.7 µM [inhibitor, partial curve, poor fit]	
COc1cc2c(cc1OC)C(C)N(C(=O)[C@@H](NC(=O)c1ccccc1)C(C)C)CC2 (stereo partly specified)		inconclusive: -16.1% [inhibitor]
O=C(O)c1cc(Cl)c2c(c1)[C@@H]1C=CC[C@@H]1[C@H](c1ccc(S(=O)(=O)N3CCOCC3)cc1)N2	active: 26.7 µM	
CCOC(=O)c1cnc2c(C)cccc2c1NCCc1ccc(OC)c(OC)c1	inconclusive: 29.9 µM [inhibitor, single point]	
CCc1ccc(C2CC(c3ccc(Cl)cc3)n3nc(N)nc3N2)cc1 (stereo unspecified)	inconclusive: 37.7 µM [inhibitor, single point]	
CC(=O)c1ccc(NC(=S)NNC(=O)c2ccccc2[N+](=O)[O-])cc1	inconclusive: 37.7 µM [inhibitor, single point]	
CCn1c(SCC(=O)N(C)c2c(N)n(Cc3ccccc3)c(=O)[nH]c2=O)nnc1-c1cccs1		inactive: 2.53%
O=C(CSc1nc2ccccc2s1)NCc1ccc2c(c1)OCO2	inconclusive: 29.9 µM [inhibitor, partial curve]	
CCCCc1ccc(S(=O)(=O)NC(=O)C2(C)CCN2C(=O)C/C=C/c2ccccc2)cc1 (stereo unspecified)		inactive: -27.1%
O=C(O)c1cccc(Nc2nc(Nc3ccccc3)nc(N3CCCC3)n2)c1	inconclusive: 26.7 µM [inhibitor, single point]	
COc1ccc(N=Cc2nc(-c3ccccc3)oc2OC(=O)c2ccccc2)cc1	inconclusive: 2.99 µM [inhibitor, full curve]	
Cc1occc1-c1nnc(SCC(=O)c2c[nH]c3ccccc23)n1C	active: 23.8 µM	
O=[N+]([O-])c1cc(C(F)(F)F)cc([N+](=O)[O-])c1Sc1n[nH]c(C(F)(F)F)n1	inconclusive: 29.9 µM [inhibitor, partial curve]	
CC(=O)Nc1cccc2cc(O)ccc12		inactive: -21.9%
CCOc1ccc(N=C(NN)c2ccc3ccccc3n2)cc1	inconclusive: 23.8 µM [inhibitor, partial curve]	
Clc1ncc(CSc2ccccc2)s1	inconclusive: 23.8 µM [inhibitor, partial curve]	
O=C(NNS(=O)(=O)c1ccccc1[N+](=O)[O-])c1ccccc1[N+](=O)[O-]	inconclusive: 18.9 µM [inhibitor, partial curve]	
COC(=O)c1ccc(COc2ccc(/C=N/Nc3cccc(C(=O)O)c3)cc2)cc1	inconclusive: 23.8 µM [inhibitor, partial curve]	
CN(C)C(=O)c1c(C(F)(F)F)nn(C)c1Cl	inconclusive: 18.9 µM [inhibitor, partial curve]	
